# PubChem BioAssay AID2685 (National Center for Advancing Translational Sciences (NCATS), 2010)
# The other results are listed elsewhere or left out. These are further read-outs of the screen, such as a control signal, another cell line or another target. No call is given for them. Compounds called inactive in the main read-out are mostly missing here. The note in brackets gives the kind of curve behind each potency; many fits are weak.
# Test: qHTS Assay for Lipid Storage Modulators in Drosophila S3 Cells;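 for cell number change: cells counted by Cell Tracker Red CMTPX staining in the red channel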
# Conditions: BODIPY lipid droplet fluorescence, 18-24 h; for cell number change: measured here: cell count max response, cells fed with added oleic acid
# In short: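 Drosophila S3 cells loaded with oleic acid (400 uM, as added) and compounds at several concentrations; lipid droplets imaged by 488-nm laser-scanning cytometry, 500–530 nm intensity and object ratio to cell channel. Percent activity normalized to 20 uM Triacsin C.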
# [1] = measured here: cell number channel AC50, cells fed with added oleic acid
# [2] = measured here: lipid fluorescence (Fed channel) AC50, cells fed with added oleic acid
SMILES,cell number change [%],AC50 [1],AC50 [2]
COc1ccc(NC(=O)COc2cccnc2[N+](=O)[O-])cc1OC,7.93,"0.731 µM [falling, single point]",
O=C(COC(=O)c1ccccc1[N+](=O)[O-])NNC(=O)c1cccs1,-15.2,,
Cc1ccc2oc(-c3cccc(NC(=S)NC(=O)/C=C/c4ccco4)c3)nc2c1,27.1,,
CC1CCN(c2nc3c(c(=O)[nH]c(=O)n3C)n2CC(C)CSc2nnnn2-c2ccccc2)CC1 (stereo unspecified),3.92,"0.517 µM [falling, single point]","29.1 µM [rising, single point]"
CCOc1ccccc1NC(=O)c1cccc(N2C(=O)CCC2=O)c1,2.97,,"29.1 µM [falling, single point]"
COc1ccc(NC(=O)COC(=O)CCc2cc(OC)c(OC)c(OC)c2)c([N+](=O)[O-])c1,14,,"6.51 µM [rising, single point]"
C=CCn1c(SCC(=O)NC2CC2)nnc1-c1cccc(OC)c1,-0.99,"2.91 µM [rising, single point]","29.1 µM [falling, single point]"
O=C(O)CS(=O)(=O)CC(=O)NCc1cccc(C(F)(F)F)c1,131,"16.4 µM [rising, partial curve]",
COC(=O)C1=C(C)N=c2s/c(=C3\C(=O)Nc4ccccc43)c(=O)n2C1c1ccccc1 (stereo unspecified),-33.5,"8.2 µM [falling, partial curve]","10.3 µM [falling, partial curve]"
Cc1nc(CNS(=O)(=O)c2ccc(F)cc2)cs1,-47.9,"20.6 µM [falling, partial curve]","29.1 µM [falling, single point]"
Cc1cnc(NC(=O)c2nn(C)cc2[N+](=O)[O-])s1,135,"18.4 µM [rising, partial curve]",
COc1ccc([N+](=O)[O-])cc1N(CC(=O)NCCCOC(C)C)S(C)(=O)=O,-14.3,,"29.1 µM [falling, single point]"
Cc1ccc(CSc2ncnc3c2cnn3Cc2ccccc2)cc1,38.5,"7.31 µM [rising, partial curve, poor fit]","6.51 µM [falling, single point]"
Cc1csc(SCC(=O)Nc2cc(S(=O)(=O)N(C)C)ccc2C)n1,57,"18.4 µM [rising, single point]",
O=S(=O)(c1ccc(Br)s1)N1CCN(Cc2ccc3c(c2)OCO3)CC1,12.7,,
CCOc1cc(/C=C2/SC(=S)N(Cc3ccccc3)C2=O)ccc1O,-99.7,"18.4 µM [falling, partial curve]","6.51 µM [falling, single point]"
COc1ccc(-n2c(SCC(=O)Nc3cccc(C(=O)O)c3)nnc2-c2ccco2)cc1,42.6,"20.6 µM [rising, partial curve, poor fit]",
C=CCOn1c(=O)c(-c2cccs2)[n+]([O-])c2ccccc21,49.1,"29.1 µM [rising, partial curve, poor fit]",
CNC(=S)N(C)/N=C1/C(=O)N(Cc2c(Cl)cccc2Cl)c2ccccc21,14,,"0.00461 µM [rising, full curve, poor fit]"

# Complete entries, looked up by structure:
# `COc1ccc(NC(=O)COC(=O)CCc2cc(OC)c(OC)c(OC)c2)c([N+](=O)[O-])c1` is listed as cell number change [%]: 14; AC50 [2]: 6.51 µM [rising, single point]
# `CNC(=S)N(C)/N=C1/C(=O)N(Cc2c(Cl)cccc2Cl)c2ccccc21` is listed as cell number change [%]: 14; AC50 [2]: 0.00461 µM [rising, full curve, poor fit]

# (continued)

SMILES,cell number change [%],AC50 [1],AC50 [2]
Cc1ccc(NC2CCCN(C(=O)c3ccc(F)cc3)C2)cc1C (stereo unspecified),34.8,"29.1 µM [rising, single point]",
O=C(Cc1cc(=O)[nH]c(=O)[nH]1)NCC1CCCO1 (stereo unspecified),0.443,,"10.3 µM [rising, partial curve]"
CCOC(=O)c1cnc2c(-c3ccccc3)cnn2c1C,163,,
Cc1cccc(NC(=O)c2cc(S(=O)(=O)N3CCc4ccccc43)cn2C)c1,0.865,,
COc1cccc(OCc2cc(C(=O)NCc3ccc4c(c3)OCO4)no2)c1,38,"11.6 µM [rising, partial curve]","6.51 µM [rising, partial curve]"
O=C1CCCC(O)=C1C=NCc1ccccc1,,"1.16 µM [falling, partial curve]",
Cc1ccc(NC(=O)c2sc(N)nc2C)cc1,-8.33,"0.82 µM [falling, full curve, poor fit]",
COc1ccc(C2CC(c3ccccc3)=NN2S(=O)(=O)c2ccccc2)c(OC)c1 (stereo unspecified),138,"13 µM [rising, partial curve]","0.259 µM [rising, full curve]"
Cc1ccc(Cn2cc(C(=O)c3ccc(F)cc3)c(=O)c3cc4c(cc32)OCCO4)cc1,,,"3.66 µM [rising, full curve]"
O=C(Cc1ncc(C(F)(F)F)cc1Cl)N1CCN(c2cccc(Cl)c2)CC1,72.5,"18.4 µM [rising, single point]",
CC/C(=N\NC(=O)CNC(=O)/C=C/c1ccco1)c1ccccc1,-32.4,"0.184 µM [falling, full curve, poor fit]",
COC(=O)c1ccccc1NS(=O)(=O)c1ccc2c3c(cccc13)C(=O)N2,-55.6,"0.461 µM [falling, full curve]","0.58 µM [falling, single point]"
O=C(Nc1nc(-c2ccccc2)cs1)c1cccc([N+](=O)[O-])c1,-13.5,,"23.1 µM [falling, single point]"
CCCn1c(SCc2nc3ccccc3s2)n[nH]c1=O,34.9,"6.51 µM [rising, single point]",
CSc1ccc(CN2CCN(S(=O)(=O)Cc3ccccc3)CC2)cc1,22.7,,
COC(=O)c1ccc(C(=O)OC)c(NC(=O)Nc2ccc3c(c2)OCO3)c1,2.34,,"18.4 µM [rising, partial curve]"
COc1cc2nc(-c3ccccc3)nc(N3CCCC3)c2cc1OC,45,"7.31 µM [rising, partial curve, poor fit]","0.13 µM [falling, full curve, poor fit]"
O=C(CSCC(=O)Nc1ccc2ccccc2c1)NCc1ccccc1,-8.83,,"4.11 µM [falling, full curve]"
